In patent US20230365959A1, “METHOD FOR IMPROVING THE STABILITY OF A COMPOSITION COMPRISING A FLAVIN-DEPENDENT LACTATE DEHYDROGENASE” (KIKKOMAN CORPORATION, priority 2020, published 2023):
Some entries share one result that the patent states for a list of compounds.

Test system: lactate dehydrogenase from Pichia kudriavzevii (PkLDH)
Assay: Thermal stability of PkLDH (residual activity ratio after heat treatment, potassium phosphate buffer)
Assay type: biochemical
Conditions: added compound 300 mM, potassium phosphate buffer pH 7.5, 55°C for 15 minutes, without stabilizer 30%
Method: Thermal stability of LDH can be evaluated by heating LDH at a given temperature for a given time and comparing the activity thereof before and after heating. […] The LDH activity of an LDH solution which is allowed to stand still on ice without heating is taken as 100 and the LDH activity after heating is calculated and, the residual activity ratio (ratio of remaining activity) (%) can be determined.
More specifically, the residual activity ratio (%) can be obtained by measuring LDH activity value (a) of a solution before heat treatment or before long-term storage and LDH activity value (b) of a solution after heat treatment or after long-term storage and calculating ((b)/(a)×100).
Using the purified PkLDH preparation obtained above, the residual activity ratio (%) in the presence and absence of an LDH stabilizer were compared in accordance with the LDH thermal stability evaluation method mentioned previously, and in this manner, a stabilizer was searched.
The thermal stability of LDH was evaluated by heating LDH at a given temperature for a given time and comparing the activities before and after heating. […] Further, LDH activity of an LDH solution allowed to stand still on ice without any heat treatment was measured. Based on the activity of this case without any heat treatment taken as 100, the activities of LDH solutions after heat treatment were calculated to determine the residual activity ratio (%). More specifically, the residual activity ratio (%) can be obtained by measuring LDH activity value (a) of a solution before heat treatment or before long-term storage, and LDH activity value (b) of a solution after heat treatment or after long-term storage, and then, calculating ((b)/(a)×100).
The degree of LDH stability improving effect of each of the various added compounds was evaluated by preparing an LDH solution by allowing LDH to coexist with each of the various compounds, subjecting the solution to a heat treatment and determining the residual activity ratio (%) of the solution, and evaluating the residual activity (%) by mutually comparing the cases between compounds or comparing the case to a case where no compound was added.
The activity of LDH was determined in accordance with the following procedure. […] Subsequently, a 30 mM PMS solution (50 μL) and an enzyme sample solution (50 μL) were added to the mixture to initiate a reaction. Absorbance at 520 nm was measured at the time of initiation of the reaction and over time and, the degree of reduction (ΔA520) in absorbance per minute as the enzymatic reaction progresses was obtained and LDH activity was calculated in accordance with the following Mathematical formula 2. […]

LDH stability improvement effect (residual activity ratio with stabilizer minus without), ≥ 10%:
O=C(O)/C=C/C(=O)O [Fumaric acid, fumaric acid]
O=C(O)/C=C\C(=O)O [Maleic acid, maleic acid]
OC[C@H]1O[C@@](CO)(O[C@H]2O[C@H](CO)[C@@H](O)[C@H](O)[C@H]2O)[C@@H](O)[C@@H]1O [Sucrose, sucrose]
OC[C@H]1O[C@H](O[C@H]2O[C@H](CO)[C@@H](O)[C@H](O)[C@H]2O)[C@H](O)[C@@H](O)[C@@H]1O [Trehalose dihydrate, trehalose dihydrate]
